Screen size: about 340,000 compounds; about 170 (0.05%) were called active. Inconclusive means that the source gave no clear call. Such entries were picked first, then a sample of the others. Calls follow the shape of the dose curve; as a rule, active = well fitted inhibition curve with a large enough effect in the signal ratio, with a control signal flat (not every such curve was filed as active); inconclusive = small, poorly fitted or top-dose-only effect, or effect the other way, or a change in a side signal; inactive = flat fitted curve, though single readings scatter; the % refers to the signal ratio. A potency beside an inconclusive call is a rough fit, not a confirmed value.
Experiment: qHTS Assay to Find Inhibitors of Chronic Active B-Cell Receptor Signaling;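 as to activity change, negative = inhibition: plate controls were basal doxycycline-induced cells for no effect and cells given 10 µM MG132 for full effect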
Details: ABC-DLBCL IkBa-CBG/CBR reporter, luminescence ratio (green luciferase fused to IkBa over red control in TMD8 lymphoma cells), 4 h; activity change, negative = inhibition: at 46.1 µM (top of the series)
Method in brief: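 TMD8 ABC-DLBCL cells carrying doxycycline-inducible green luciferase fused to IkappaBalpha plus unfused red luciferase were exposed to compounds (up to 46 uM) for 4 hrs at 37C. Activity came from the overlap-corrected green/red luminescence ratio.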
For `COc1ccc(CN2CCc3ccc(NC(=O)CCc4ccccc4OC)cc3C2)c(O)c1`, the Potency was inconclusive: 12.6 µM [falling, partial curve]. With `O=C(COC(=O)/C=C/c1ccc(C(F)(F)F)cc1)NCC1CCCO1` (stereo not given) the “activity change, negative = inhibition” value was inactive: -3.57%. For `COC(=O)N/N=C/c1ccc([N+](=O)[O-])o1`, the “activity change, negative = inhibition” value was inactive: -2.3%. In the case of `CC(C(=O)Nc1ccccc1F)N1C(=O)c2ccccc2C1=O` (stereo not given), the activity change, negative = inhibition is reported as inconclusive: 0.996%. In the case of `Cc1ccc2nc(-c3ccc4c(c3)OCCO4)cc(C(=O)O)c2c1`, the Potency is reported as inconclusive: 5.17 µM [falling, single point]. With `COc1ccc(Cn2nnnc2CN2CCc3ccccc32)cc1` the “activity change, negative = inhibition” value was inactive: -16.9%. In the case of `O=C(CCl)NC(Cc1ccccc1)c1ccccc1` (stereo not given), the activity change, negative = inhibition is reported as inconclusive: -17.9%. For `CC(C)CC(NC(=O)c1ccc(Cl)cc1)C(=O)O` (stereo not given), the activity change, negative = inhibition was inconclusive: 1.85%. With `O=C(NCCCCc1ccccc1)C1CCCC1` the “activity change, negative = inhibition” value was inactive: 0.887%. In the case of `COc1ccc2c(c1)CCC(C)N2C(=O)C(=O)c1c[nH]c2ccccc12` (stereo not given), the Potency is reported as inconclusive: 15.8 µM [falling, partial curve]. With `C/C(=N\O)C1CCCCC1` the “activity change, negative = inhibition” value was inactive: -0.0047%. In the case of `O=C(Nc1cccnc1Cl)c1noc2c1CCc1ccccc1-2`, the activity change, negative = inhibition is reported as inconclusive: 3.45%. In the case of `Cc1c(C(=O)N/N=C/c2ccccc2)[nH]c2ccc(Cl)cc12`, the “activity change, negative = inhibition” value is reported as inactive: -24.9%. With `Oc1ccccc1-c1cncn1Cc1ccccc1` the “activity change, negative = inhibition” value was inactive: 5.91%. For `Cc1cc(C)cc(NC(=O)C2C3C=CC4(O3)C2C(=O)N(CCCN2CCCCC2)C4C(=O)NC2CCCCC2)c1` (stereo not given), the activity change, negative = inhibition was inconclusive: 12.2%. In the case of `COc1c(Br)cc(Br)cc1/C=N/NC(=O)c1ccncc1`, the “activity change, negative = inhibition” value is reported as inactive: -25.5%. With `O=C(OCC1CC(c2ccccc2)=NO1)c1ccco1` (stereo not given) the activity change, negative = inhibition was inconclusive: 1.73%. In the case of `COc1ccc(NC(=O)NC2CCCc3ccccc32)cc1` (stereo not given), the Potency is reported as inconclusive: 12.6 µM [falling, partial curve, poor fit]. With `Cc1cccnc1NC(=O)CN1C(=O)COc2ccc(Cl)cc21` the activity change, negative = inhibition was inconclusive: -1.85%. For `COC(=O)c1sc2ccccc2c1-n1cccc1C(=O)C(=O)Nc1ccc(F)cc1`, the Potency was inconclusive: 7.08 µM [falling, partial curve, poor fit]. For `CSc1ccccc1-n1nnnc1SCC(=O)Nc1cc(C)ccc1C`, the Potency was inconclusive: 18.4 µM [falling, partial curve]. In the case of `CC(C)(C)c1ccc(N2C(=O)CC(c3ccccc3)C2=O)cc1` (stereo not given), the activity change, negative = inhibition is reported as inconclusive: -2.32%. For `Cn1cncc1C#Cc1ccc2c(=O)c3ccccc3oc2c1`, the activity change, negative = inhibition was inconclusive: -0.209%. In the case of `COc1ccc(-c2c(C)cc3oc(=O)cc(-c4ccccc4)c3c2C)cc1`, the activity change, negative = inhibition is reported as inconclusive: 12.9%. In the case of `Cc1nc2c(C(=O)NCCc3ccccc3Cl)c[nH]n2c(=O)c1Cl`, the activity change, negative = inhibition is reported as inconclusive: 6.83%. In the case of `CSc1nc2c(c(=O)n1-c1ccc(C)cc1)SCC2`, the activity change, negative = inhibition is reported as inconclusive: 2.21%. With `COc1cc2ncnc(NCCc3ccccc3)c2cc1OC` the “activity change, negative = inhibition” value was inactive: -1.2%. In the case of `Cc1ccc(C(=O)Nc2cc3[nH]c(=O)oc3cc2C)cc1`, the activity change, negative = inhibition is reported as inconclusive: -0.107%. For `CCN(CC)S(=O)(=O)c1cc(C(=O)Nc2ccc(Cl)cn2)ccc1C`, the Potency was inconclusive: 0.92 µM [rising, full curve, poor fit]. For `Cc1nn(CCC(=O)NNC(=S)Nc2ccc([N+](=O)[O-])cc2)c(C)c1[N+](=O)[O-]`, the activity change, negative = inhibition was inconclusive: 12.1%. For `Cc1cccc(C(=O)Nc2cccc3c2CCCC3)c1`, the activity change, negative = inhibition was inconclusive: 7.53%. For `O=C(Nc1ccc(F)cc1)c1cc2cc(Cl)ccc2[nH]1`, the Potency was inconclusive: 22.4 µM [falling, partial curve]. For `COc1cc(C2NCCc3c2[nH]c2ccccc32)ccc1OC(C)C` (stereo not given), the activity change, negative = inhibition was inconclusive: -21.7%. For `CCCNC(=O)c1ccc(-c2nn(C)c(=O)c3ccccc23)cc1`, the activity change, negative = inhibition was inconclusive: -17%. In the case of `Cc1cc(=O)[nH]c(N/N=C/c2ccc(-c3ccc(F)cc3)o2)n1`, the activity change, negative = inhibition is reported as inconclusive: 320%. With `COc1ccc(CC(C(=O)Nc2ccc(OC)cc2)c2nn[nH]n2)cc1` (stereo not given) the “activity change, negative = inhibition” value was inactive: 5.24%. With `CN(C)c1cc[nH]c(=O)c1C#N` the activity change, negative = inhibition was inconclusive: -5.55%. For `Cc1nnc(NC(=O)c2ccc(S(=O)(=O)N3CCc4ccccc4C3)cc2)o1`, the “activity change, negative = inhibition” value was inactive: -5.53%. In the case of `CCN(Cc1ccncc1)C(=O)c1ccc(Br)o1`, the “activity change, negative = inhibition” value is reported as inactive: -11.7%. In the case of `CCN(CC)CCNCc1cc(Cl)c(OCC(=O)Nc2ccccc2)c(OC)c1`, the activity change, negative = inhibition is reported as inconclusive: -4.58%. In the case of `N/C(Cc1cccc2ccccc12)=N\OC(=O)Cc1cccs1`, the activity change, negative = inhibition is reported as inconclusive: 4.48%. For `Cc1ccc(Cn2c(=N)c(C(=O)NCC3CCCO3)cc3c(=O)n4ccccc4nc32)cc1` (stereo not given), the “activity change, negative = inhibition” value was inactive: 0.773%. In the case of `COc1ccc(N2CCN(C(=O)CSc3ncccc3-c3nc4ccccc4[nH]3)CC2)cc1`, the Potency is reported as inconclusive: 3.55 µM [falling, partial curve]. With `Cc1ccc(OCC(=O)OCC(=O)NC2CC2)cc1C` the activity change, negative = inhibition was inconclusive: -0.378%. For `NS(=O)(=O)c1ccc(N/N=C/c2ccc(O)cc2O)c([N+](=O)[O-])c1`, the “activity change, negative = inhibition” value was inactive: 1.79%. For `c1ccc2c(c1)[nH]c1c3ccccc3sc21`, the activity change, negative = inhibition was inconclusive: 16.5%. With `COC(=O)CSc1nnc(-c2sc3ccccc3c2Cl)o1` the Potency was inconclusive: 3.98 µM [falling, single point]. With `CCCOc1ccc(C2C(=O)N(C3CCC(C)CC3)CC(=O)N2CCc2ccccc2)cc1OC` (stereo not given) the “activity change, negative = inhibition” value was inactive: 2.31%. In the case of `O=C(CCN1C(=O)c2ccccc2C1=O)N1CCN(c2ccccn2)CC1`, the activity change, negative = inhibition is reported as inconclusive: 2.51%. With `CCOC(=O)c1cc(NCc2cccs2)ccc1N1CCOCC1` the activity change, negative = inhibition was inconclusive: 15.2%. In the case of `Cc1nn(-c2ccccc2)c(Cl)c1/C=C/C(=O)c1ccc(O)cc1`, the Potency is reported as inconclusive: 29.1 µM [falling, single point]. In the case of `Cc1c(CCC(=O)N2CCC(C(=O)O)(c3ccccc3)CC2)c(=O)oc2cc3oc4c(c3cc12)CCCC4`, the Potency is reported as inconclusive: 5.01 µM [falling, partial curve, poor fit]. In the case of `Cc1cccc(-n2ncc3c(NCCc4ccc(S(N)(=O)=O)cc4)ncnc32)c1`, the Potency is reported as inconclusive: 2.59 µM [rising, full curve]. For `NC(=O)N1c2ccccc2C=Cc2ccccc21`, the activity change, negative = inhibition was “inactive”. In the case of `C=CCn1c(SC(C)C(=O)NCc2ccc3c(c2)OCO3)nnc1C1CCCCC1` (stereo not given), the activity change, negative = inhibition is reported as inconclusive: 2.48%.

From PubChem BioAssay AID493014 (National Center for Advancing Translational Sciences (NCATS), 2011)
Potency is read from the fitted curve at half-maximal effect.
